The structures given here were assigned with low confidence; some may be wrong.
Key:
human NHE3 [1] = target: T1, human NHE3 (Homo sapiens, UniProt P48764); test: Cell-based assay of NHE-3 activity (persistent inhibition after washout), human; conditions: human Persistence assay; after 60 min incubation and washout
Sprague Dawley rats = test: Inhibition of intestinal sodium absorption in rats (urinary sodium excretion, fecal form); conditions: rat; for FFS (1-5): fecal form score, group median (1 normal pellet to 5 liquid fecal streams), oral, 13 hours; for Urinary Na (% of Vehicle, out/in): oral gavage, 13-hours post-dose
human NHE3 [2] = target: T1, human NHE3; test: Cell-based assay of NHE-3 activity (pre-incubation inhibition), human; conditions: human Preincuba assay; PS120 fibroblasts expressing human NHE3 and NHERF2

By UniProt entry, the sequences of proteins in these tests, tags left out. Residues count along the entry.
UniProt P48764, 26-834 limits assumed: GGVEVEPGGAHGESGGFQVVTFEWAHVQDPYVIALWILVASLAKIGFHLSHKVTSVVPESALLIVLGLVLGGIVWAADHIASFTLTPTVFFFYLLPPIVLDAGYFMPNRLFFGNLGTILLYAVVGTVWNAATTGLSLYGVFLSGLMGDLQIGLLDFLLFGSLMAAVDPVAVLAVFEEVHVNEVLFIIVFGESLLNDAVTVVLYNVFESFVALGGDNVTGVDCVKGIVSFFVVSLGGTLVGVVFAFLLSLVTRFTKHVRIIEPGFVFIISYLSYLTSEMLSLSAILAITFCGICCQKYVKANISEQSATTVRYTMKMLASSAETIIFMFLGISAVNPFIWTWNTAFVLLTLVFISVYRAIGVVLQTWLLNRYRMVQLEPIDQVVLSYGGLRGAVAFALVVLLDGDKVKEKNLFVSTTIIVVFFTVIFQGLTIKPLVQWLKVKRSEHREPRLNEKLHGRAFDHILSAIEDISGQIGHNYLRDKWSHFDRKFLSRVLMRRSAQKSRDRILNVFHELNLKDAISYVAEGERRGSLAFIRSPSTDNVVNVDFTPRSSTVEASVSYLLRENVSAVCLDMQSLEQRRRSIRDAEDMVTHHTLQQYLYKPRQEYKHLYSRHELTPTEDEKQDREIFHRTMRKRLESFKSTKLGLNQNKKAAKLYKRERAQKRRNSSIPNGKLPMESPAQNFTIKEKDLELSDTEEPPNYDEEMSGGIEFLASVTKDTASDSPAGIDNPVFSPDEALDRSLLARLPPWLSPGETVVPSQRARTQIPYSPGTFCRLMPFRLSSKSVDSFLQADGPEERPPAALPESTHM
UniProt Q99653, 2-195 partner limits assumed: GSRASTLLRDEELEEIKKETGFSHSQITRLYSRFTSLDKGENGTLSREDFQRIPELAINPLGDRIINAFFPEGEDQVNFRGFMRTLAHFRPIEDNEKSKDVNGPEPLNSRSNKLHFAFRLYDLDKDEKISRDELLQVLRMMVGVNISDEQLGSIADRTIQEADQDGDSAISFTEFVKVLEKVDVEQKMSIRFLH

CN1Cc2c(Cl)cc(Cl)cc2C(c2cccc(S(=O)(=O)N[C@H]3CCN(CCOCCNC(=O)NCCCCNC(=O)NCCOCCN4CC[C@H](NS(=O)(=O)c5cccc(C6CN(C)Cc7c(Cl)cc(Cl)cc76)c5)C4)C3)c2)C1 (stereo partly shown)
% inhibition (human NHE3 [1]): C (>70%)
pIC50 (human NHE3 [1]): C (NHE3 pIC50 >7)
FFS (1-5) (Sprague Dawley rats; 0.01 mg/kg): 3
FFS (1-5) (Sprague Dawley rats; 0.03 mg/kg): 2
FFS (1-5) (Sprague Dawley rats; 0.1 mg/kg): 3
Urinary Na (% of Vehicle, out/in) (Sprague Dawley rats; dose 0.01 mg/kg): A (>70%)
Urinary Na (% of Vehicle, out/in) (Sprague Dawley rats; dose 0.03 mg/kg): A (>70%)
Urinary Na (% of Vehicle, out/in) (Sprague Dawley rats; dose 0.1 mg/kg): C (<40%)
% inhibition (human NHE3 [2]): C (>70%)
pIC50 (human NHE3 [2]): C (NHE3 pIC50 >7)
